According to patent US20060083691A1, “Intranasal opioid compositions, delivery devices and methods of using same” (priority 2000, published 2006):

Columns and labels:
[1] = clinical; details: male, human, plasma, 2 mg
[2] = 2 mg IN
[3] = 2 mg IN; remark: listed apart in the source

CN1CC[C@]23c4c5ccc(O)c4O[C@H]2C(=O)CC[C@H]3[C@H]1C5.Cl [hydromorphone HCl]
bioavailability ([1]; intramuscular): ~30% | AUC(0-t) ([1]; intramuscular, AUC(0-t) range, 2 mg i.m.): 10.6 to 15.3 ng·h/mL | AUC(0-t) ([1]; intramuscular, AUC(0-t), 2 mg i.m.): 13 ng·h/mL | AUC(0-inf) ([1]; intramuscular, AUC(0-∞) range, 2 mg i.m.): 11.2 to 16.7 ng·h/mL | AUC(0-inf) ([1]; intramuscular, AUC(0-∞), 2 mg i.m.): 13.5 ng·h/mL | Cmax ([1]; intramuscular, Cmax range, 2 mg i.m.): 6.75 to 18.1 ng/mL | Cmax ([1]; intramuscular, Cmax, 2 mg i.m.): 10.8 ng/mL | Tmax ([1]; intramuscular, Tmax range, 2 mg i.m.): 4.98 to 20 min | AUC(0-t) ([1]; iv, AUC(0-t) range, 2 mg i.v.): 8.55 to 11.5 ng·h/mL | AUC(0-t) ([1]; iv, AUC(0-t), 2 mg i.v.): 9.9 ng·h/mL | AUC(0-inf) ([1]; iv, AUC(0-∞) range, 2 mg i.v.): 8.79 to 12.9 ng·h/mL | AUC(0-inf) ([1]; iv, AUC(0-∞), 2 mg i.v.): 10.4 ng·h/mL | Cmax ([1]; iv, Cmax range, 2 mg i.v.): 6.95 to 28.9 ng/mL | Cmax ([1]; iv, Cmax, 2 mg i.v.): 15.5 ng/mL | Tmax ([1]; iv, Tmax range, 2 mg i.v.): 4.98 to 10 min | Tmax ([1]; iv, Tmax, 2 mg i.v. (Dilaudid)): 5.64 min | AUC(0-t) ([1]; other: intranasal, AUC(0-t) range, 2 mg i.n.): 4.25 to 8.73 ng·h/mL | AUC(0-t) ([1]; other: intranasal, AUC(0-t), 2 mg i.n.): 6.19 ng·h/mL | AUC(0-inf) ([1]; other: intranasal, AUC(0-∞) range, 2 mg i.n.): 4.36 to 9.1 ng·h/mL | AUC(0-inf) ([1]; other: intranasal, AUC(0-∞), 2 mg i.n.): 6.68 ng·h/mL | Cmax ([1]; other: intranasal, Cmax range, 2 mg i.n.): 2.76 to 4.42 ng/mL | Cmax ([1]; other: intranasal, Cmax, 2 mg i.n.): 3.44 ng/mL | Tmax ([1]; other: intranasal, Tmax range, 2 mg i.n.): 15 to 20 min | nasal irritation [2]: not observed | absorption by the nasal route [3]: well absorbed
